These are yes or no findings as the source states them, for the method shown. In cells and extracts the contact can be indirect. Some binding calls cover weakened binding; strength is not graded here. Tags and fused reporters may be left off the sequences shown.

For the assay, the target named is T1, MYC-CCDC36 (UniProt Q8IYA8).
T1 sequence: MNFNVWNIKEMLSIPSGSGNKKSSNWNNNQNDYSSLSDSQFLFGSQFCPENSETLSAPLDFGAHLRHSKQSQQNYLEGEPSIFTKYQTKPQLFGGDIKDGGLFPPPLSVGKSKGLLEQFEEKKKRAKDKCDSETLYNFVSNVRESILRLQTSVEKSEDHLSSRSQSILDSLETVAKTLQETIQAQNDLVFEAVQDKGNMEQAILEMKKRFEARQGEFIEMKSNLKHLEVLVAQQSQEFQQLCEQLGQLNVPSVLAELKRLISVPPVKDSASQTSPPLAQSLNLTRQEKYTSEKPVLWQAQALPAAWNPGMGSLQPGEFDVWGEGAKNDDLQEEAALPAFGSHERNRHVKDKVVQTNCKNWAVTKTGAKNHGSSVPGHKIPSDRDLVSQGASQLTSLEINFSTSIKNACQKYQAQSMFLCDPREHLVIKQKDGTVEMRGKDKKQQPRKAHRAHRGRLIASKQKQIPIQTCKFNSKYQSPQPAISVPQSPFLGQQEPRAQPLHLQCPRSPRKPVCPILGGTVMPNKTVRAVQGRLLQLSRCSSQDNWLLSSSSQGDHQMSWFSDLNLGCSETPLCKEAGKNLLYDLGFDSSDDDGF
Briefly: co-IP; H1299 cells transfected with MYC-CCDC36 alone or together with HA-HORMAD1; 48 h later IR (10 Gy) or sham, harvested 1 h after; extracts immunoprecipitated with MYC antibodies; immunoblot with anti-HA and anti-MYC. On the technique in general: A western blot detects proteins with antibodies after separation by electrophoresis.

B1: HA-HORMAD1 (protein, UniProt Q86X24 1-394)
chain: MATAQLQRTPMSALVFPNKISTEHQSLVLVKRLLAVSVSCITYLRGIFPECAYGTRYLDDLCVKILREDKNCPGSTQLVKWMLGCYDALQKKYLRMVVLAVYTNPEDPQTISECYQFKFKYTNNGPLMDFISKNQSNESSMLSTDTKKASILLIRKIYILMQNLGPLPNDVCLTMKLFYYDEVTPPDYQPPGFKDGDCEGVIFEGEPMYLNVGEVSTPFHIFKVKVTTERERMENIDSTILSPKQIKTPFQKILRDKDVEDEQEHYTSDDLDIETKMEEQEKNPASSELEEPSLVCEEDEIMRSKESPDLSISHSQVEQLVNKTSELDMSESKTRSGKVFQNKMANGNQPVKSSKENRKRSQHESGRIVLHHFDSSSQESVPKRRKFSEPKEHI
With B1, the binding result is recorded as “binds”.

Values taken from article PMC6192992.
